PubChem BioAssay AID1259308 | NCATS | 2017
The whole screen tested about 59,000 reagents; this is an unselected part. About 1,510 of them (2.6%) were called active. 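Calls use total luciferase alone and ignore viability, so some active siRNAs may act by altering cell number.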 Entries without a mark were called inactive. The numbers tell different reagents against one gene apart. Not all columns of the deposit are shown.

Screen: 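Knock-downs that increase output of a recombinant reporter protein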 (primary screen)
Cells: human HEK293 embryonic kidney cells stably expressing firefly luciferase (HEK-CMV-Luc2-Hygro)
Reagent: single siRNA against human genes, 0.8 pmol siRNA per well
Time to read-out: 72 h
Measured: 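Reporter luminescence and viable-cell signal on separate replicate plates, given as percent of non-targeting control and median/MAD z-scores, plus per-cell luciferase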
Scale: total luciferase, z-score: higher = more reporter protein produced
Active means: 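An siRNA counts as active if its total luciferase robust z-score exceeds 3; genes with two or more such siRNAs out of three were retested with fresh siRNAs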
Meaning of the calls: active = raised luciferase; inactive = no rise

total luciferase, z-score, by target gene and reagent
HECTD3 (HECT domain E3 ubiquitin protein ligase 3): #1 -1.7; #2 2.19; #3 -0.632
IMPG1 (interphotoreceptor matrix proteoglycan 1): #1 1.02; #2 0.0422; #3 0.937
TULP2 (TUB like protein 2): #1 1.81; #2 2.44; #3 -0.575
TKTL1 (transketolase like 1): #1 -0.461; #2 -0.707; #3 -1.73
RAB17 (RAB17, member RAS oncogene family): #1 0.276; #2 -1.17; #3 -0.26
NCS1 (neuronal calcium sensor 1): #1 -0.0732; #2 0.342; #3 -2.28
RABL2B (RAB, member of RAS oncogene family like 2B): #1 -0.173; #2 -0.192; #3 0.0903
TOMM22P5 (TOMM22 pseudogene 5): #1 0.974; #2 -0.338; #3 0.414
VEZT (vezatin, adherens junctions transmembrane protein): #1 -0.808; #2 0.938; #3 0.626
REG3G (regenerating family member 3 gamma): #1 0.899; #2 0.885; #3 0.437
FASN (fatty acid synthase): #1 0.512; #2 0.195; #3 -0.397
PIK3CD-AS1 (PIK3CD antisense RNA 1): #1 1.51; #2 -0.123; #3 0.421
HMGN4 (high mobility group nucleosomal binding domain 4): #1 -0.919; #2 0.296; #3 -0.11
